Values of other authors in US20250017878A1 (Chronic Airway Therapeutics Limited, priority 2021, published 2025).

Conditions: after oral intake; cited from earlier work

CC(C)[N+]1(C)[C@@H]2CC[C@H]1C[C@@H](OC(=O)C(CO)c1ccccc1)C2 (stereo partly shown) [Ipratropium bromide, ipratropium bromide]
time of peak plasma concentrations: 3 h
